Literature values as cited in patent US10793559B2, “Chemical compounds” (GlaxoSmithKline Intellectual Property Development Limited, priority 2016, dated 2020).
Read-outs that look alike come from different tables or passages of the source.

Chains of the proteins cited; added tags and fusions are not shown.
UniProt P68400, whole entry: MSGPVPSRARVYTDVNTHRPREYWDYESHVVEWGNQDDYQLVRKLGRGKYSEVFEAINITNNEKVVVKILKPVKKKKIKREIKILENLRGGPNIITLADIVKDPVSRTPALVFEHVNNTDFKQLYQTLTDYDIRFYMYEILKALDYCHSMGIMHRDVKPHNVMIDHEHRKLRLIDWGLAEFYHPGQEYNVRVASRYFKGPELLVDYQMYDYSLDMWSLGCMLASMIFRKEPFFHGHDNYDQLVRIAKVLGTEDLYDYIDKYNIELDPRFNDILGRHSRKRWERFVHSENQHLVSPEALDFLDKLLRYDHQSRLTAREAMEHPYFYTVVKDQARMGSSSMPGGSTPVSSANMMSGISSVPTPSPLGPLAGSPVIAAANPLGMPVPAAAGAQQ

Tests used:
Class I PI3-kinases = settings: cited from earlier work
CK2 protein kinase = CK2 protein kinase (Homo sapiens, UniProt P68400); settings: read-out: IC50 on CK2 protein kinase; cited from earlier work

| SMILES | IC50 (Class I PI3-kinases; read-out: IC50 values against each of the various Class I PI3-kinases) | IC50 (CK2 protein kinase) | IC50 (Class I PI3-kinases; Fruman et al. 1998, read-out: IC50 values against each of these PI3-kinases) |
| --- | --- | --- | --- |
| COC[C@H]1OC(=O)c2coc3c2[C@@]1(C)C1=C(C3=O)[C@@H]2CCC(=O)[C@@]2(C)C[C@H]1OC(C)=O [wortmannin] | 0.001 to 0.01 µM |  |  |
| O=c1cc(N2CCOCC2)oc2c(-c3ccccc3)cccc12 [LY294002] |  | 5 to 10 µM | 15 to 20 µM |
